Experimental data from PMC11263569.
No constants are given. Whether binding was seen depends on the method and setting. Binding seen in cells or lysates may run through a third protein. Some entries that bind do so weakly or less than the wild type. For part of these data: Where a sequence is shown, tags or fusion partners need not be part of it. Blank lines part the entries; values can stand above or below the molecule they belong to.

Protein sequences, listed by entry. Tags and fused reporters are not part of them.
UniProt Q9UNE7: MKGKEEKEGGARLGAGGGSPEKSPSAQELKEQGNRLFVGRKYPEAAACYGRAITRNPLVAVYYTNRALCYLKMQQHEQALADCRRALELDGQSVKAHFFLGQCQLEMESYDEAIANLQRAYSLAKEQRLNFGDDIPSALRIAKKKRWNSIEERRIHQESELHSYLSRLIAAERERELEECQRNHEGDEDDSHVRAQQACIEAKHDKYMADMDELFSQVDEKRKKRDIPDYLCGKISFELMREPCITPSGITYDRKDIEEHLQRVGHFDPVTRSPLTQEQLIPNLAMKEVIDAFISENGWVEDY
UniProt P35579: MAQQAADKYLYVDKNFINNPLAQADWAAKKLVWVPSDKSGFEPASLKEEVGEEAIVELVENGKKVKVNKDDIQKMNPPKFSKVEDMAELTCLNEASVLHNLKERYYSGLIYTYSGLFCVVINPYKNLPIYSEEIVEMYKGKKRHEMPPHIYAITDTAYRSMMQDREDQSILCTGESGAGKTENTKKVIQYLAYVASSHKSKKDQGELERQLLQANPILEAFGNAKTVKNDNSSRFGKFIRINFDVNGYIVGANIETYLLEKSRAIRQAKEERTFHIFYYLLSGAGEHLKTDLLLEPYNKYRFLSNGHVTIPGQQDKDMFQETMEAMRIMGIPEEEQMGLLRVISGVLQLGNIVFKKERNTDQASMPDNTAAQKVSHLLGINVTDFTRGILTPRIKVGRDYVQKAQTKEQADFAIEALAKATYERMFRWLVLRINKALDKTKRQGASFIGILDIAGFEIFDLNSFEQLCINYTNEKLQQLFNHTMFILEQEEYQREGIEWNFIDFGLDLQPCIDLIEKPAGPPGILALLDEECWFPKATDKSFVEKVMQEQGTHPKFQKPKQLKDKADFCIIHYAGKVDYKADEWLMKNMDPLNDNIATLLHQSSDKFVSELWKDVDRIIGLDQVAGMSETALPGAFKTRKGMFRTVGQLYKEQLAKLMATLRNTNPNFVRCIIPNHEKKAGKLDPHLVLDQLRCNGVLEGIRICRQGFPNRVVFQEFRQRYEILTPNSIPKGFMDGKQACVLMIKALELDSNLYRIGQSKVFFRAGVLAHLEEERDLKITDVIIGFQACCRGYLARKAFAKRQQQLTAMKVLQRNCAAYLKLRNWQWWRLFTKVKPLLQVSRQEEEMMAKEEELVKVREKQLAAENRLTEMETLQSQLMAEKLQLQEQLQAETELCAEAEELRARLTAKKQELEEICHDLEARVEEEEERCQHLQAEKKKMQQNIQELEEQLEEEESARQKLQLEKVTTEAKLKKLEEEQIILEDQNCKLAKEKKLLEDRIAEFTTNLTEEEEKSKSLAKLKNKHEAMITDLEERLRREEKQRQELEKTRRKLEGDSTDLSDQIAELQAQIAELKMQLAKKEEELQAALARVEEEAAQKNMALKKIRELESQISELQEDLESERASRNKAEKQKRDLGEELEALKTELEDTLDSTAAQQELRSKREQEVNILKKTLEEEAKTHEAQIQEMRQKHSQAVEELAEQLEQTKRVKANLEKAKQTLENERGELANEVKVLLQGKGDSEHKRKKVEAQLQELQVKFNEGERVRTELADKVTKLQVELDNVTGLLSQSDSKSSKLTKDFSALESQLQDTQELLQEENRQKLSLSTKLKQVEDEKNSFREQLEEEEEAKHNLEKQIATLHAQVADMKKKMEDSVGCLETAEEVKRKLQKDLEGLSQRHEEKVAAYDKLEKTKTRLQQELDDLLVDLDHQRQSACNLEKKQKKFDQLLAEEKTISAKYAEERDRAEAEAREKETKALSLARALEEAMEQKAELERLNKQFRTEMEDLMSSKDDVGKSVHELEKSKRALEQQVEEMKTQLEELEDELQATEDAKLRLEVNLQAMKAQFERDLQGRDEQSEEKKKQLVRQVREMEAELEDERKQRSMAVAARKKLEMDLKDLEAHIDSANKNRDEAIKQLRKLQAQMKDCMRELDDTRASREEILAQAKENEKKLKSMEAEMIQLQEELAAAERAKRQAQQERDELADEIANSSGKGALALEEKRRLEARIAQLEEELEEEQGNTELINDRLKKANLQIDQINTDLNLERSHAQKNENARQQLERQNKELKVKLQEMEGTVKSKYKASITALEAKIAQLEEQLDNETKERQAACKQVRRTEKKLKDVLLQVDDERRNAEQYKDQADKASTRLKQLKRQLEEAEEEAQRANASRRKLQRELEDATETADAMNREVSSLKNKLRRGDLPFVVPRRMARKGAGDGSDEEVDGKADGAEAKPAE

Assays:
GST-RGS19 = target: T1, GST-RGS19 (UniProt P49795); assay: pull-down; GST pull-down in vitro with purified GST-RGS19; source of MYH9 not told
T1 sequence: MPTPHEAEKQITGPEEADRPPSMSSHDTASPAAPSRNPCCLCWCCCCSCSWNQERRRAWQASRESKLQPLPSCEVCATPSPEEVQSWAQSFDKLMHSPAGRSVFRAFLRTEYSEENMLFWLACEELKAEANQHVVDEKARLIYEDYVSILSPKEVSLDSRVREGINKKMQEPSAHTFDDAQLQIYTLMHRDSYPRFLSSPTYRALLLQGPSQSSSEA

STUB1^His = STUB1^His (UniProt Q9UNE7); assay: pull-down; His pull-down in vitro with STUB1^His; source of MYH9 not told
[1] = target: T2, FLAG-RGS19 (regulator of G-protein signaling 19) (UniProt P49795); assay: co-IP; Huh7 and HCCLM3 cells transfected with FLAG-RGS19; immunoprecipitation and Western blot
T2 sequence: T1 sequence

[2] = target: T3, RGS19, endogenous in HCC cells (human (endogenous in HepG2, HCCLM3, Huh7)) (UniProt P49795); assay: co-IP; endogenous proteins in HCC cells (HepG2, HCCLM3, Huh7); also in cells transfected with vector or RGS19 plasmids, shNC or sh-RGS19, or with STUB1 knocked down or overexpressed
T3 sequence: T1 sequence

[3] = target: MYH9 (non-muscle myosin heavy chain IIA), endogenous in HCC cells (human (endogenous in Huh7, HCCLM3, HepG2)) (UniProt P35579); assay: as above
MYH9^His, full length [4] = target: MYH9^His, full length (UniProt P35579); assay: co-IP; HEK-293T cells co-transfected; lysates immunoprecipitated with anti-His antibody (MYH9), immunoblot with anti-Flag (RGS19) or anti-Myc (STUB1) antibody
[5] = target: T2, FLAG-RGS19 (regulator of G-protein signaling 19); assay: co-IP; HEK-293T cells co-transfected; lysates immunoprecipitated with anti-Flag antibody (RGS19), immunoblot with anti-His antibody (MYH9)
MYH9^His, full length [6] = target: MYH9^His, full length (UniProt P35579); assay: co-IP; indicated doses of purified RGS19 or STUB1 protein added to lysates of HEK-293T cells transfected with His-MYH9; immunoprecipitation with anti-His antibodies, Western blot; only the binder purified

Molecule: MYH9 (non-muscle myosin heavy chain IIA), endogenous in HCC cells (from UniProt P35579 1-1960)
binding [1]: binds | binding [2]: binds

Molecule: STUB1^Myc (from UniProt Q9UNE7 1-303) (enzyme)
binding (MYH9^His, full length [4]): binds

B1: purified RGS19 protein (added to lysates, Fig. 4h) (protein, UniProt P49795 1-217)
chain: T1 sequence
binding (MYH9^His, full length [6]): binds

More lines, now with the values ahead:

binding (GST-RGS19): binds | binding (STUB1^His): binds
Molecule: MYH9 used in the in vitro pull-down assays (from UniProt P35579 1-1960)

binding [3]: binds
Molecule: STUB1, endogenous in HCC cells (from UniProt Q9UNE7 1-303) (enzyme)

binding [5]: binds
Molecule: MYH9^His, full length (from UniProt P35579 1-1960)

binding (MYH9^His, full length [6]): binds
Molecule: purified STUB1 protein (added to lysates, Fig. 4h) (from UniProt Q9UNE7 1-303) (enzyme)
